These results are taken from article PMC6562864.

By UniProt entry, the sequences of proteins in these tests, tags left out.
UniProt P35222: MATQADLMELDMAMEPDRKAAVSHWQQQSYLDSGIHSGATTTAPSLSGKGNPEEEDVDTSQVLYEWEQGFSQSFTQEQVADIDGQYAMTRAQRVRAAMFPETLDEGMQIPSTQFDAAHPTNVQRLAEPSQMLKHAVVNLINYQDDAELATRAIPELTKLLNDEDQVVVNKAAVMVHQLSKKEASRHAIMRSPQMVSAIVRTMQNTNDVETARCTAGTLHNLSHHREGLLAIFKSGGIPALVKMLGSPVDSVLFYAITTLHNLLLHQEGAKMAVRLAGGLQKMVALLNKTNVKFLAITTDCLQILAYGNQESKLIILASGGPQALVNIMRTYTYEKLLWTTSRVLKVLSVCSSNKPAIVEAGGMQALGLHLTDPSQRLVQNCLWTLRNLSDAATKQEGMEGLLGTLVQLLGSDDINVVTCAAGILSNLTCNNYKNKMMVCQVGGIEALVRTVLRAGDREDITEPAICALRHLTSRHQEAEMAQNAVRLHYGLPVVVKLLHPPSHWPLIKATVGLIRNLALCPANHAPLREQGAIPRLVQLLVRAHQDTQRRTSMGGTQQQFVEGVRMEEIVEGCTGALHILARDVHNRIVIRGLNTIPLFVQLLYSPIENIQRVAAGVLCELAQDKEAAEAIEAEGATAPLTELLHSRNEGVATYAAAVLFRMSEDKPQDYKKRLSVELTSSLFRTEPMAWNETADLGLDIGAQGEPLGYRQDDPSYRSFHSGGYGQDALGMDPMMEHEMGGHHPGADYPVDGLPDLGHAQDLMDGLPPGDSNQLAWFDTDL
UniProt Q9NQB0: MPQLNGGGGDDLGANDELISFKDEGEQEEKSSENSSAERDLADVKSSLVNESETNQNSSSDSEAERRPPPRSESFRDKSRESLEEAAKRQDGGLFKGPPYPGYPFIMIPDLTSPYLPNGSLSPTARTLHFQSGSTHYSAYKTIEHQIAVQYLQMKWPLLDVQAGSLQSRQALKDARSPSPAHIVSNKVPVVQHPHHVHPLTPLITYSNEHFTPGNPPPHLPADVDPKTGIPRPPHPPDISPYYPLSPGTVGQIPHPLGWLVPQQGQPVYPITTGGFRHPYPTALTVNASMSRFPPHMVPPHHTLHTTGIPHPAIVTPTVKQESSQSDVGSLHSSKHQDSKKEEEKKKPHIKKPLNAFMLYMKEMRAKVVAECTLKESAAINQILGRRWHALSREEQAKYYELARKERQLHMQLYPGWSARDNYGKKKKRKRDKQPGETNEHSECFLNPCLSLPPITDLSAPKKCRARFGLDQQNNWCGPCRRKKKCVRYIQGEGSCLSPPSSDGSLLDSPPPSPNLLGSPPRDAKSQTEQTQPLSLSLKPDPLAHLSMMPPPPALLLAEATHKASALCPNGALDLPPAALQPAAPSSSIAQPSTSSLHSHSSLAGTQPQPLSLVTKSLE

Holding throughout (assay): co-IP; 150 µg nuclear protein of HCC cells (HepG2, Hep3B, Huh6) treated with DMSO or the IC50 of YC-1 for 6 h, with or without N-si-p48 DsiRNA; IP buffer 10 mM Tris-HCl pH 7.6, 145 mM NaCl, 1 mM EDTA, 1 mM EGTA, 0.5% Triton X-100; anti-β-catenin, anti-TCF4 or anti-EBP1 antibody overnight at 4 °C, protein A/G Sepharose; western blotting
(In general: Immunoblotting shows a protein as a band on a membrane.)

Assay [1] concerns the target T1, ErbB3 binding protein 1 (EBP1) p42 isoform (human (endogenous in HepG2, Huh6 and Hep3B)) (UniProt Q9UQ80).
T1 sequence: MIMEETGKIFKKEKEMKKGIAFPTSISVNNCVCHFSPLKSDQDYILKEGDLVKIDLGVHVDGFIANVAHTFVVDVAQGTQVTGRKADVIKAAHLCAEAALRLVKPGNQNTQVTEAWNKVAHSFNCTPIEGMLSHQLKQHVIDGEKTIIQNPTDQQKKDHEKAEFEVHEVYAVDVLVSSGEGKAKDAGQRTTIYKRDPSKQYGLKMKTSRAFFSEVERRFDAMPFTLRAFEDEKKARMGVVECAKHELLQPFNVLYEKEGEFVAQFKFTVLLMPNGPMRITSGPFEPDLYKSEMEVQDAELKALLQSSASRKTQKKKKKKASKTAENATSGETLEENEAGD

The target of assay [2] is β-catenin (human (endogenous in HepG2 and Hep3B)) (UniProt P35222).
For assay [3], the target named is T cell-specific factor 4 (TCF4) (human (endogenous in HepG2, Hep3B and Huh6)) (UniProt Q9NQB0).

These are yes or no findings as the source states them, for the method shown. In cells and extracts the contact can be indirect. Some binding calls cover weakened binding; strength is not graded here.

In the case of “T cell-specific factor 4 (TCF4) (from UniProt Q9NQB0 1-619)”, the binding entry in assay [1] is “binds”.

B1: ErbB3 binding protein 1 (EBP1) p48 isoform (protein, UniProt Q9UQ80 1-394)
chain: MSGEDEQQEQTIAEDLVVTKYKMGGDIANRVLRSLVEASSSGVSVLSLCEKGDAMIMEETGKIFKKEKEMKKGIAFPTSISVNNCVCHFSPLKSDQDYILKEGDLVKIDLGVHVDGFIANVAHTFVVDVAQGTQVTGRKADVIKAAHLCAEAALRLVKPGNQNTQVTEAWNKVAHSFNCTPIEGMLSHQLKQHVIDGEKTIIQNPTDQQKKDHEKAEFEVHEVYAVDVLVSSGEGKAKDAGQRTTIYKRDPSKQYGLKMKTSRAFFSEVERRFDAMPFTLRAFEDEKKARMGVVECAKHELLQPFNVLYEKEGEFVAQFKFTVLLMPNGPMRITSGPFEPDLYKSEMEVQDAELKALLQSSASRKTQKKKKKKASKTAENATSGETLEENEAGD
Take B1: the binding entry in assay [2] and in assay [3] was “binds” in each case.

B2: ErbB3 binding protein 1 (EBP1) p42 isoform (protein, UniProt Q9UQ80-2 1-340)
chain: MIMEETGKIFKKEKEMKKGIAFPTSISVNNCVCHFSPLKSDQDYILKEGDLVKIDLGVHVDGFIANVAHTFVVDVAQGTQVTGRKADVIKAAHLCAEAALRLVKPGNQNTQVTEAWNKVAHSFNCTPIEGMLSHQLKQHVIDGEKTIIQNPTDQQKKDHEKAEFEVHEVYAVDVLVSSGEGKAKDAGQRTTIYKRDPSKQYGLKMKTSRAFFSEVERRFDAMPFTLRAFEDEKKARMGVVECAKHELLQPFNVLYEKEGEFVAQFKFTVLLMPNGPMRITSGPFEPDLYKSEMEVQDAELKALLQSSASRKTQKKKKKKASKTAENATSGETLEENEAGD
Turning to B2, the binding entry in assay [2] and in assay [3] was “binds” each time.
